# Assay results

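A panel of P. falciparum strains inside erythrocytes is exposed to compounds for three days, then a DNA-binding dye reports the amount of parasite DNA.
Each compound was titrated across a series from about 0.000037 to 29 µM.
The number is the fitted AC50, the concentration giving a half-maximal change in signal; a lower value means higher potency, whether the curve shows a decrease or an increase.
Calls follow the curve class and fit quality: every row here is inconclusive, covering signal-raising curves and weak, poorly fitted, partial or highest-dose-only inhibition curves.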

Values are in nM.
All entries here are filed as inconclusive.
Only part of the assay is shown, chiefly results filed as inconclusive.
A potency from a partial, single-point or poor curve is only a rough figure.
The first word of each remark tells which way the curve ran; it can be opposite to the aim of the assay.

Result for Cc1cc(-n2nc3ccc(Cl)cc3n2)c(O)c(C(C)(C)C)c1 [ATS189] was potency 2818 nM (inhibitor, single point). Cc1cc(-n2nc3ccc(Cl)cc3n2)c(O)c(C(C)(C)C)c1 [TAB165] read potency 3981 nM (inhibitor, single point). Result for CCOC(=O)Cc1ccc(-c2ccccc2)cc1 [CP256] was potency 501.2 nM (inhibitor, full curve, poor fit). For CCOC(=O)Cc1ccc(-c2ccccc2)cc1 [CP191] the result was potency 31622 nM (inhibitor, partial curve, poor fit). NC(=O)C1(N2CCCCC2)CCN(CCCC(=O)c2ccc(F)cc2)CC1 [W2] gave potency 4256 nM (inhibitor, single point).

For NC(=O)C1(N2CCCCC2)CCN(CCCC(=O)c2ccc(F)cc2)CC1 [DIV17] the result was potency 7569 nM (inhibitor, partial curve). For CC1(C)O[C@@H]2C[C@H]3[C@H]4C[C@H](F)C5=CC(=O)CC[C@]5(C)[C@@H]4[C@H](O)C[C@]3(C)[C@]2(C(=O)CO)O1 [7G8] the result was potency 10000 nM (inhibitor, single point). Result for CC1(C)O[C@@H]2C[C@H]3[C@H]4C[C@H](F)C5=CC(=O)CC[C@]5(C)[C@@H]4[C@H](O)C[C@]3(C)[C@]2(C(=O)CO)O1 [CP192] was potency 2031 nM (inhibitor, partial curve, poor fit). CC1(C)O[C@@H]2C[C@H]3[C@H]4C[C@H](F)C5=CC(=O)CC[C@]5(C)[C@@H]4[C@H](O)C[C@]3(C)[C@]2(C(=O)CO)O1 [CP215] read potency 8087 nM (inhibitor, single point). O=P(O)(O)C(O)(Cn1ccnc1)P(=O)(O)O [CP203] gave potency 1.3 nM (activator).

COc1ccc(CCN2CCC(Nc3nc4ccccc4n3Cc3ccc(F)cc3)CC2)cc1 [CP215] read potency 11995 nM (inhibitor, single point). With COc1ccc(CCN2CCC(Nc3nc4ccccc4n3Cc3ccc(F)cc3)CC2)cc1 [CP266] the assay gave potency 5358 nM (inhibitor, partial curve, poor fit). With COc1ccc(CCN2CCC(Nc3nc4ccccc4n3Cc3ccc(F)cc3)CC2)cc1 [CP262] the assay gave potency 4256 nM (inhibitor, single point). For COc1ccc(CCN2CCC(Nc3nc4ccccc4n3Cc3ccc(F)cc3)CC2)cc1 [CP203] the result was potency 19011 nM (inhibitor, single point). With CC1CCN(CCCC(=O)c2ccc(F)cc2)CC1 [DIV14] the assay gave potency 1901 nM (inhibitor, partial curve, poor fit).

Result for CC1CCN(CCCC(=O)c2ccc(F)cc2)CC1 [CP237] was potency 8912 nM (inhibitor, single point). CC1CCN(CCCC(=O)c2ccc(F)cc2)CC1 [CP262] gave potency 4256 nM (activator, single point). Result for O=S(c1cc(Cl)cc(Cl)c1O)c1cc(Cl)cc(Cl)c1O [CP291] was potency 42.6 nM (activator). For O=S(c1cc(Cl)cc(Cl)c1O)c1cc(Cl)cc(Cl)c1O [ATS189] the result was potency 28183 nM (inhibitor, partial curve, poor fit). With O=S(c1cc(Cl)cc(Cl)c1O)c1cc(Cl)cc(Cl)c1O [CP262] the assay gave potency 16944 nM (activator).

O=S(c1cc(Cl)cc(Cl)c1O)c1cc(Cl)cc(Cl)c1O [AA1029] read potency 31622 nM (inhibitor, partial curve, poor fit). Result for CNC(C)C(O)c1ccc(O)cc1 (stereo not drawn) [CP260] was potency 11220 nM (inhibitor, single point). Result for CC(=O)O[C@H]1C[C@@]2(C)[C@H](C[C@@H](O)[C@H]3[C@@]4(C)CC[C@@H](O)[C@@H](C)[C@H]4CC[C@@]32C)C1=C(CCC=C(C)C)C(=O)O [ICS] was potency 7943 nM (inhibitor, partial curve). For CC(=O)O[C@H]1C[C@@]2(C)[C@H](C[C@@H](O)[C@H]3[C@@]4(C)CC[C@@H](O)[C@@H](C)[C@H]4CC[C@@]32C)C1=C(CCC=C(C)C)C(=O)O [7G8] the result was potency 11220 nM (inhibitor, single point). CC(=O)O[C@H]1C[C@@]2(C)[C@H](C[C@@H](O)[C@H]3[C@@]4(C)CC[C@@H](O)[C@@H](C)[C@H]4CC[C@@]32C)C1=C(CCC=C(C)C)C(=O)O [DIV17] read potency 19011 nM (inhibitor, partial curve, poor fit).

c1cc2c(c(N3CCNCC3)c1)OCCO2 [CP266] gave potency 4256 nM (inhibitor, single point). For c1cc2c(c(N3CCNCC3)c1)OCCO2 [DIV17] the result was potency 10690 nM (inhibitor, partial curve, poor fit). Result for C[N+]1(C)[C@@H]2CC(OC(=O)[C@@H](CO)c3ccccc3)C[C@@H]1[C@H]1O[C@H]12 (stereo partly drawn) [ATS95] was potency 17782 nM (inhibitor, single point).

For reference, 2 entries once more:

* c1cc2c(c(N3CCNCC3)c1)OCCO2 [CP266] : potency 4256 nM (inhibitor, single point)
* CNC(C)C(O)c1ccc(O)cc1 (stereo not drawn) [CP260] : potency 11220 nM (inhibitor, single point)

From PubChem BioAssay record AID504749 (NCATS, 2011).